From patent publication US20170233490A1
Substitutions are numbered along the chain they refer to. Results are given in words; binding and its absence hold for the method and conditions named. Some binding calls cover weakened binding; strength is not graded here. One block for each binder: values may come before it.

Chains of the proteins cited; added tags and fusions are not shown. Lines headed by an entry give the natural chain unless they say otherwise; changes in a name come on top.
UniProt P21860: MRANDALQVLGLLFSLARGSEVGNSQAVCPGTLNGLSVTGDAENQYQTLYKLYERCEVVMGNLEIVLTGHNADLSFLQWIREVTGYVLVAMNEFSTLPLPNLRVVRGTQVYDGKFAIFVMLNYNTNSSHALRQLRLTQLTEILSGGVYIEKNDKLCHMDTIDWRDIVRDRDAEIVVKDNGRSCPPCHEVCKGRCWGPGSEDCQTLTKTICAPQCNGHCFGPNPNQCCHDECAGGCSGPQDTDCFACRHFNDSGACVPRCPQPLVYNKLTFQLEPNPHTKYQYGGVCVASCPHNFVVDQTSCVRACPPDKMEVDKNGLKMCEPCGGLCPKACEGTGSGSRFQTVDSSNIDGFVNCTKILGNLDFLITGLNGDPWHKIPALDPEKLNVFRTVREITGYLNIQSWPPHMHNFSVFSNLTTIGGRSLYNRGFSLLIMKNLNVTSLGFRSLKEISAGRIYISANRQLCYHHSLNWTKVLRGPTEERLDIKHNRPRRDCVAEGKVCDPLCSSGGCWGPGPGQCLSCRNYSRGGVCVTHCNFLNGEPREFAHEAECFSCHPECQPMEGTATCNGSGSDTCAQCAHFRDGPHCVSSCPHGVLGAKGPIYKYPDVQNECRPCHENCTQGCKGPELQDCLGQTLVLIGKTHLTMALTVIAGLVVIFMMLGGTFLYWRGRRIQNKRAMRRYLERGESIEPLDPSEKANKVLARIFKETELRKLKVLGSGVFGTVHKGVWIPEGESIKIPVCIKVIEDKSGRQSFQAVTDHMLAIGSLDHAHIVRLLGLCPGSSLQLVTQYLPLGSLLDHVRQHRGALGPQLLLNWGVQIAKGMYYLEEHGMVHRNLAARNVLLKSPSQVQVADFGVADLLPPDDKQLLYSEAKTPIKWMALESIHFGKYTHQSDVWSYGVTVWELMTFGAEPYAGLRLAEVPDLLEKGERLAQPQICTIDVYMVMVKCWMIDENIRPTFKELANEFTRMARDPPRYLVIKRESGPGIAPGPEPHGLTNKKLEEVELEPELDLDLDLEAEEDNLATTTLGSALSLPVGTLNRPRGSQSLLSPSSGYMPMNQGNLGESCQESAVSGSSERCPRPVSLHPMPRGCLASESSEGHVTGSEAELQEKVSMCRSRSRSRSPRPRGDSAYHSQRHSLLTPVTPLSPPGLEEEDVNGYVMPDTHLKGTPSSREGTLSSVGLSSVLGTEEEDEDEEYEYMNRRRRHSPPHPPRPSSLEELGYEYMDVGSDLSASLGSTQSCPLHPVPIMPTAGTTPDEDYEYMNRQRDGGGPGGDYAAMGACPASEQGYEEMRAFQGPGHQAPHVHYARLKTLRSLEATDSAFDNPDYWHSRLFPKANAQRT

Legend:
[1] = biological target: HER3 ECD-HRG complex (human) (UniProt P21860); experiment: SPR (Biacore B3000, 25 °C), antibody captured by anti-human Fc antibody; HER3-ECD/HRG1β complex (ECD3/HRG) in a 1:3 series up to 270 nM, 5 min injection, 10 min dissociation
TtSlyD-FKBP-Her3 = biological target: T1, TtSlyD-FKBP-Her3; experiment: SPR kinetic screening
T1 sequence: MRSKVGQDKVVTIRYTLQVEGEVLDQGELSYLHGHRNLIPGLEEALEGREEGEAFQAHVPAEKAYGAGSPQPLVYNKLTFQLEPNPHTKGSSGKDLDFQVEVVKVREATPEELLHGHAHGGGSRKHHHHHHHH

[2] = biological target: HER3 ECD-HRG complex (human) (UniProt P21860); experiment: ribosome display panning of scFv on biotinylated, heregulin-activated Her3-ECD (100 nM)

binding [2]: binds
B3: scFv ribosome display construct VH-A/VL-B of humanized M-05-74 (scFv, V domains shown)
VH: QVQLVQSGAELKKPGASVKVSCRTSGYTLTDYWIHWVRQAPGQGLEWMGYINPYTGYTESNQKFKDRVAMTRDASINTAYMELTSLRSDDTAVYYCARPYYYGDYWGQGTLVTVSS
VL: EIVLTQSPSSLSASVGDRVTITCSASSSVSYMHWYQQKPGKAPKLLIYSTSNLASGVPSRFSGSGSGTDFTLTISSLQPEDFATYYCQQRSSYPFTFGGGTKVDIK

binding [2]: binds
B4: scFv ribosome display construct VH-A/VL-E of humanized M-05-74 (scFv, V domains shown)
VH: B3 VH
VL: B3 VL with L4M, F70Y, G99Q, V103L, D104E

Second part, the binder before the results:

B1: DIB-MoAb (monovalent antibody based on M-05-74) (antibody, V domains shown)
VH: QVQLQQSGAELAKPGASVKMSCKTSGYTLTDYWIHWVKQRPGQGLEWIGYINPYTGYTESNQKFKDKATLTADKSSNTAYIQLSSLTSEDSAVYYCARPYYYGDYWGQGTTLTVSS
VL: QIVLTQSPAIMSASPGERVTITCSASSSVSYMHWFQQKPGTSPKLLIYSTSNLASGVPARFSGSGSGTSYSLTISRMEAEDAATYYCQQRSSYPFTFGSGTKLEIK
binding [1]: binds

B2: anti-HER3/HER4 antibody M-05-74 (antibody, V domains shown)
VH: B1 VH
VL: B1 VL
binding (TtSlyD-FKBP-Her3): binds
